From paper PMC3407958 (Pharmacotherapy, 2010)
Where two headings read alike, the source gives them in different places.

By UniProt entry, the sequences of proteins in these tests, tags left out.
UniProt P08183, whole entry: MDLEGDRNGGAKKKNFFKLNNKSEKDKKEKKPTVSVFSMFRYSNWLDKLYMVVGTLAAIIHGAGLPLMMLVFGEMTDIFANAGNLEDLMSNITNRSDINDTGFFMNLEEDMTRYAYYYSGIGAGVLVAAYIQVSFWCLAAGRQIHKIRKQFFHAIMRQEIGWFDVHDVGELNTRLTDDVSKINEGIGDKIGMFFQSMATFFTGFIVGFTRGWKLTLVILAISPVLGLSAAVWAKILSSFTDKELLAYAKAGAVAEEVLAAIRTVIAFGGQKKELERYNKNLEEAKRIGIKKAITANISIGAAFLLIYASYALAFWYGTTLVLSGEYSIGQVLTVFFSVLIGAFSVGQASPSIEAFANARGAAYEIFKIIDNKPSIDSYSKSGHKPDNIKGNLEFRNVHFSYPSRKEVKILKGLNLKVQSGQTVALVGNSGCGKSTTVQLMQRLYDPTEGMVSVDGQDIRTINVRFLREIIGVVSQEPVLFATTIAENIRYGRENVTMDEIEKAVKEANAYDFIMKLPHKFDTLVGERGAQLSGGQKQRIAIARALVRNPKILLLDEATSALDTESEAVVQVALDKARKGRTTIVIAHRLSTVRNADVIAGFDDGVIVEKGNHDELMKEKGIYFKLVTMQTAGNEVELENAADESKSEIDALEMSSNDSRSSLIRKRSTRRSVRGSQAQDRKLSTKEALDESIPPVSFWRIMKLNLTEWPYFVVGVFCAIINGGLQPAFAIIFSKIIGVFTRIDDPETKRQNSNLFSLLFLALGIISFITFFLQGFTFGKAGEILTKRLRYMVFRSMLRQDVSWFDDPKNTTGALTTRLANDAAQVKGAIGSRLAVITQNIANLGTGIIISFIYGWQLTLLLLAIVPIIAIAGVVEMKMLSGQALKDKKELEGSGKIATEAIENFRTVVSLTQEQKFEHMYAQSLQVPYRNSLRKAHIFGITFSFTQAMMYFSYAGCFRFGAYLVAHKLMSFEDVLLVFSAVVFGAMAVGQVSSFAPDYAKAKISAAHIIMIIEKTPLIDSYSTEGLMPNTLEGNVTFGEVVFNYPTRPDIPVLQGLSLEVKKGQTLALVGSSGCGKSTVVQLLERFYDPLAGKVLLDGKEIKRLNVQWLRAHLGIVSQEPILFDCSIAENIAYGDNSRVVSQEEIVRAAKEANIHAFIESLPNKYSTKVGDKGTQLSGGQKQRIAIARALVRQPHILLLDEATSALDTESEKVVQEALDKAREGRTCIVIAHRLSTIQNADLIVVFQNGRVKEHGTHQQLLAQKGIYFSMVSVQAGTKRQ

Molecular target: P-glycoprotein (P-gp) (Homo sapiens, UniProt P08183)
Assay type: in vivo, human (healthy volunteers)
Settings: plasma, po, 120 mg, AUC0-∞, fexofenadine 120 mg single oral dose, geometric mean (90% CI)

`CC(C)(C(=O)O)c1ccc(C(O)CCCN2CCC(C(O)(c3ccccc3)c3ccccc3)CC2)cc1` (centres unmarked) [fexofenadine] gave an AUC(0-inf) (Post-Echinacea (28 days, 500 mg three times daily)) of 1540 ng·h/mL and an AUC(0-inf) (Pre-Echinacea) of 1570 ng·h/mL.
